Experimental data as given in publication PMC3878975.

Target: T1, peptide representing the N-terminus of Sec61 (…) (human)
T1 sequence (peptide): AIKFLEVIKPFC
Assay: SPR; BIAlite; Sec61 N-terminal peptide thiol-coupled on CM5 chip (measuring cell), TRAM N-terminal peptide in the control cell, difference shown; Sec62-C-6His 1 μM flowed at 10 μl/min in 10 mM HEPES-KOH pH 7.4, 150 mM NaCl, 2 mM MgCl, 6.4 mM KCl, 0.005% surfactant, without Ca2+ or with 2 mM Ca2+ (more pronounced binding without Ca2+); 1:1 binding models with mass transfer; both purified

binding: binds
Substance: Sec62-C-6His, the C-terminal cytosolic domain of Sec62 (human) (domain or fragment)

These are yes or no findings as the source states them, for the method shown. Binding can be weak; no strength is given.
